For 2 molecules, binding results are on record in PMC9039064.

Sequences of proteins named here, by UniProt entry; tags and fusion partners are left off. A change or cut given only in a name is not applied to a line headed by its entry.
UniProt Q00987: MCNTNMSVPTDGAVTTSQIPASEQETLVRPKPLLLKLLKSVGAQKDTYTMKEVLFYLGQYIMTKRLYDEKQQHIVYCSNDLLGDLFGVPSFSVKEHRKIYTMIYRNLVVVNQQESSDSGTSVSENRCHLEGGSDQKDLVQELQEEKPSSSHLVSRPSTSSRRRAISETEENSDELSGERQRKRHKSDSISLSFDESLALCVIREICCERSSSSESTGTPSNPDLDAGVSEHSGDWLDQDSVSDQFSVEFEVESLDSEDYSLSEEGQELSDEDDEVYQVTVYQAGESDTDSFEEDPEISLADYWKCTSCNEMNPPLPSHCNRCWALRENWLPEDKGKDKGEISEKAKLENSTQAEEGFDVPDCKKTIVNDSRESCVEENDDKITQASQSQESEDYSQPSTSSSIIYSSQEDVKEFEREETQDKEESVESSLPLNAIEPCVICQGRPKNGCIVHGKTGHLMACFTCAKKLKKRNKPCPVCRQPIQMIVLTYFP

Results are given in words; binding and its absence hold for the method and conditions named. In cells and extracts the contact can be indirect. Binding can be weak; no strength is given. For some assays here: Where a sequence is shown, tags or fusion partners need not be part of it.

Assay [1] has as its target MDM2-HA (UniProt Q00987). The assay can be described thus: co-IP; transfected A549 cells (the text says HEK-293 for Fig. 5A); lysate in TNE buffer or IP buffer (50 mM Tris-HCl, 2 mM EDTA, 250 mM NaCl, 10% glycerol, 0.5% NP-40); IP with anti-FLAG, anti-HA or anti-Myc and Protein G agarose overnight at 4 °C; immunoblot; some samples with SHANK1 overexpression, sh/si-SHANK1 or si-MDM2.

Assay [2] has as its target MDM2, endogenous in rat lung (rat (endogenous in rat lung)). Description: co-IP; endogenous proteins, adult rat lung lysate by the legends (the text says A549 cells); IP with mouse anti-MDM2 or rabbit anti-KL; immunoblot.

B1: Flag-KL (Flag-tagged Klotho) (protein, UniProt Q9UEF7 34-1012)
chain: EPGDGAQTWARFSRPPAPEAAGLFQGTFPDGFLWAVGSAAYQTEGGWQQHGKGASIWDTFTHHPLAPPGDSRNASLPLGAPSPLQPATGDVASDSYNNVFRDTEALRELGVTHYRFSISWARVLPNGSAGVPNREGLRYYRRLLERLRELGVQPVVTLYHWDLPQRLQDAYGGWANRALADHFRDYAELCFRHFGGQVKYWITIDNPYVVAWHGYATGRLAPGIRGSPRLGYLVAHNLLLAHAKVWHLYNTSFRPTQGGQVSIALSSHWINPRRMTDHSIKECQKSLDFVLGWFAKPVFIDGDYPESMKNNLSSILPDFTESEKKFIKGTADFFALCFGPTLSFQLLDPHMKFRQLESPNLRQLLSWIDLEFNHPQIFIVENGWFVSGTTKRDDAKYMYYLKKFIMETLKAIKLDGVDVIGYTAWSLMDGFEWHRGYSIRRGLFYVDFLSQDKMLLPKSSALFYQKLIEKNGFPPLPENQPLEGTFPCDFAWGVVDNYIQVDTTLSQFTDLNVYLWDVHHSKRLIKVDGVVTKKRKSYCVDFAAIQPQIALLQEMHVTHFRFSLDWALILPLGNQSQVNHTILQYYRCMASELVRVNITPVVALWQPMAPNQGLPRLLARQGAWENPYTALAFAEYARLCFQELGHHVKLWITMNEPYTRNMTYSAGHNLLKAHALAWHVYNEKFRHAQNGKISIALQADWIEPACPFSQKDKEVAERVLEFDIGWLAEPIFGSGDYPWVMRDWLNQRNNFLLPYFTEDEKKLIQGTFDFLALSHYTTILVDSEKEDPIKYNDYLEVQEMTDITWLNSPSQVAVVPWGLRKVLNWLKFKYGDLPMYIISNGIDDGLHAEDDQLRVYYMQNYINEALKAHILDGINLCGYFAYSFNDRTAPRFGLYRYAADQFEPKASMKHYRKIIDSNGFPGPETLERFCPEEFTVCTECSFFHTRKSLLAFIAFLFFASIISLSLIFYYSKKGRRSYK
As to B1, in assay [1], the binding result is given as “binds”.

B2: Klotho (KL), endogenous in rat lung (protein, UniProt Q9Z2Y9 35-1014)
chain: AEPGQGAQTWARFARPPVPEASGLLHDTFPDGFLWAVGSAAYQTEGGWRQHGKGASIWDTFTHHPRAIPEDSPIVMAPSGAPLPPLPSTGDVASDSYNNVYRDTEGLRELGVTHYRFSISWARVLPNGTAGTPNREGLRYYRRLLERLRELGVQPVVTLYHWDLPQRLQDTYGGWANRALADHFRDYAELCFRHFGGQVKYWITIDNPYVVAWHGYATGRLAPGVRGSSRLGYLVAHNLLLAHAKVWRLYNTSFRPTQGGRVSIALGSHWITPRRMTDYHIRECQKSLDFVLGWFAKPIFIDGDYPKSMKNNLSSLLPDFTESEKRFIRGTADFFALSFGPTLSFQLLDPSMKFRQLESPSLRQLLSWIDLEYNHPQIFIVENGWFVSGTTRRDDAKYMYYLKKFIMESLKAIRLDGVDVIGYTAWSLMDGFEWHRGYSIRRGLFYVDFLSQDKELLPKSSALFYQKLIENNGFPPLPENQPLEGTFPCDFAWGVVDNYIQVDPTLSQFTDPNVYLWDVHHSKRLIKVDGVVAKKRKPYCVDFSAIRPQITLLREMRVTHFRFSLDWALILPLGNQTQVNRTVLHFYRCMVSELVHANITPVVALWQPATPHQGLPHALAKHGAWENPHTALAFADYANLCFEELGHWVKFWITINEPNSRNMTYRAGHHLLKAHALAWHLYDDKFRAAQKGKISIALQVDWIEPACPFSQKDKEVAERVLEFDVGWLAEPIFGSGDYPHVMREWLNQKNNFLLPYFTEDEKKLIRGSFDFLALSHYTTILVDWEKEDPIKYNDYLEVQEMTDITWLNSPNQVAVVPWGLRKALNWLRFKYGDLPMFVTANGIDDDPHAEQDSLRMYYIKNYVNEALKAYVLDGINLCGYFAYSLSDRSVPKSGFYRYAANQFEPKPSIKHYRKIIDNNGFLGSGTLGRFCPEEYTVCTGCGFFQTRKSLLAFISFLVFAFVTSLALIYYYSKKGRRRYK
In the case of B2, in assay [2], the binding entry is “binds”.
